# Experimental data from PubChem BioAssay AID2625 (National Center for Advancing Translational Sciences (NCATS), 2010).
# By UniProt entry, the sequences of proteins in these tests, tags left out. Where a name states a change or a piece, a line headed by the entry shows the natural chain unless it says otherwise.
# UniProt P30613: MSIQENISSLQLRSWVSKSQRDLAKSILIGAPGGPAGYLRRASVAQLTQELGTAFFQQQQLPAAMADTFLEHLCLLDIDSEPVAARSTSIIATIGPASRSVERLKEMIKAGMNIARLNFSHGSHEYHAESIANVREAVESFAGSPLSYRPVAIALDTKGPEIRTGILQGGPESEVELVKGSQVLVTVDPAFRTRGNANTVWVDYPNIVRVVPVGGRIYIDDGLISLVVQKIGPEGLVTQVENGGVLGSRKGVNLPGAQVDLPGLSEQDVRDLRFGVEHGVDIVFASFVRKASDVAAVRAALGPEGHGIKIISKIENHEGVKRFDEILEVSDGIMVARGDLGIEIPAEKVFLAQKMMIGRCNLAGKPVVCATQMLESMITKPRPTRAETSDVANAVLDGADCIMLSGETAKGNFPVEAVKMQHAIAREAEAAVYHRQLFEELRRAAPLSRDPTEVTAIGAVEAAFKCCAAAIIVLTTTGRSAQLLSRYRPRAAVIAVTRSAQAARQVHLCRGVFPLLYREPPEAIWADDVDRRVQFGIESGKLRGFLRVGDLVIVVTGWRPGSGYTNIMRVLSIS
# The shares of active, inactive and inconclusive entries below differ from those in the screen. Potencies of inconclusive entries are doubtful fits and often do not repeat. Activity calls are given as the source filed them. Calls come from the whole dose curve; as a rule, active = well fitted curve in the direction sought with a large enough effect; inconclusive = small, poorly fitted or top-dose-only effect, or effect the other way, or another doubt; inactive = no such curve, though single readings can be large or run the other way.
# Target: Pyruvate kinase PKLR (Homo sapiens) (UniProt P30613)
# Experiment: Secondary LDH Assay for Activators of Human Liver Pyruvate Kinase: for Probe SAR
# Conditions: purified hPK-L, LDH-coupled NADH fluorescence kinetic; series mostly up to 58.2 µM
# From the text: NIH Chemical Genomics Center [NCGC]
# Matthew G. Vander Heiden, M.D., Ph.D. [Harvard Medical School, 77 Avenue Louis Pasteur, Boston, MA 02115]
# Human pyruvate kinase liver (hPK-L)enzyme was supplied as a highly purified (>95% pure) preparation from Harvard Medical School and a secondary assay was used to evaluate compounds. This assay couples the formation of pyruvate from hPK-R using lactate dehydrogenase (LDH) and NADH. The depletion of NADH is followed in a fluorescent-based kinetic assay that follows the formation of pyruvate to lactate, as catalyzed LDH. Pyruvate kinase substrates, PEP and ADP, were present in the assay at 0.1 mM and 4 mM respectively. In this kinetic assay initial rates were determined by following the fluorescence of NADH depletion.
# NCGC Assay Protocol Summary:
# Three uL of substrate mix (final concentration, 50 mM Tris-Cl pH 8.0, 200 mM KCl, 15 mM MgCl2, 0.1 mM PEP, 4.0 mM ADP, and 0.2 mM NADH) was dispensed into black-solid 1536 well plates. 23 nL of compounds were delivered by a pin tool and 1 uL of enzyme mix (final concentrations, 10 nM hPK-L and 1 uM of LDH) was added. Plates were immediately placed in ViewLux (Perkin Elmer) and NADH fluorescence was determined at 30 second exposure intervals for between 3 and 6 minutes. Data were normalized to the uninhibited and EC100 activation using known activators such as fructose-bis-phosphate.
row,Structure (SMILES),Potency
1,Cc1ccc(NS(=O)(=O)c2cc3c(cc2-c2ccco2)NC(=O)CO3)cc1C,inactive
2,Cc1ccccc1Nc1c(-c2ccccc2)nc2cccc(C)n12,"inconclusive: 0.58 µM [inhibitor, full curve]"
3,Cc1ccc(Nc2c(-c3ccsc3)nc3cccc(C)n23)cc1,"inconclusive: 8.19 µM [inhibitor, partial curve]"
4,Cc1ccc(NS(=O)(=O)c2ccc3c(c2)CCC(C)(C)O3)cc1C,inactive
5,Cc1ccc(Nc2c(-c3ccc(C)o3)nc3ccccn23)cc1,"inconclusive: 23.1 µM [inhibitor, partial curve]"
6,Cc1ccc(NS(=O)(=O)c2cc3c(cc2-c2ccsc2)NC(=O)CO3)cc1C,inactive
7,Cc1ccc(Nc2c(-c3ccc(C)s3)nc3cccc(C)n23)cc1,"inconclusive: 16.3 µM [inhibitor, partial curve, poor fit]"
8,Cc1ccc2nc(-c3ccc(C)o3)c(Nc3ccc(Cl)cc3)n2c1,"inconclusive: 14.6 µM [inhibitor, partial curve]"
9,O=C1CCc2cc(S(=O)(=O)Nc3ccc(Cl)c(Cl)c3)ccc2N1,"inconclusive: 23.1 µM [rising, partial curve]"
10,Cc1ccc(Nc2c(-c3ccc(C)o3)nc3cccc(C)n23)cc1,"inconclusive: 16.3 µM [inhibitor, partial curve]"
11,Cc1ccc(-c2nc3cccc(C)n3c2Nc2ccc(F)cc2)o1,"inconclusive: 20.6 µM [inhibitor, partial curve]"
12,Cc1ccc(NS(=O)(=O)c2ccc3c(c2)CCC(=O)N3)cc1,inactive
13,O=C1CCc2cc(S(=O)(=O)Nc3ccc(F)cc3)ccc2N1,inactive
14,Cc1ccc(NS(=O)(=O)c2cc3c(cc2F)NC(=O)CC3)cc1Cl,inactive
15,Cc1ccc(Nc2c(-c3ccsc3)nc3c(C)cccn23)cc1,"inconclusive: 7.3 µM [inhibitor, full curve]"
16,Cc1ccc(-c2nc3ccccn3c2Nc2ccccc2C)o1,"inconclusive: 10.3 µM [inhibitor, full curve]"
17,COc1ccc(-c2nc3ccccn3c2Nc2ccccc2C)cc1,"inconclusive: 8.19 µM [inhibitor, partial curve]"
18,Cc1ccc2nc(-c3ccc(C)o3)c(Nc3ccc(F)cc3)n2c1,"inconclusive: 18.3 µM [inhibitor, partial curve]"
19,COc1ccc(-c2nc3cccc(C)n3c2Nc2ccc(C)cc2)cc1,"inconclusive: 2.91 µM [inhibitor, partial curve, poor fit]"
20,Cc1ccc(-c2nc3ccccn3c2Nc2ccc(F)cc2)o1,"inconclusive: 18.3 µM [inhibitor, partial curve]"
21,Cc1ccc2nc(-c3ccc(C)o3)c(Nc3ccccc3)n2c1,"inconclusive: 18.3 µM [inhibitor, partial curve]"
22,CC(=O)N1c2ccc(S(=O)(=O)Nc3ccc(C)c(C)c3)cc2CC1C (configuration not stated),"inconclusive: 13 µM [inhibitor, single point]"
23,Fc1ccccc1-c1ccc(-c2nc3ccc(Cl)cn3c2Nc2ccc(Cl)cc2)o1,"inconclusive: 8.19 µM [rising, partial curve]"
24,Cc1ccn2c(NCc3ccco3)c(-c3ccccc3)nc2c1,"inconclusive: 36.6 µM [inhibitor, single point]"
25,Cc1ccc(N2C(=O)c3ccccc3C2=O)c(C)c1,inactive
26,Cc1ccc(Nc2c(-c3ccc(C)s3)nc3ccccn23)cc1,"inconclusive: 13 µM [inhibitor, partial curve]"
27,O=C1c2ccccc2C(=O)N1c1noc2ccccc12,inactive

# Two entries from above in a different format:
row | Structure (SMILES) | Potency
20 | Cc1ccc(-c2nc3ccccn3c2Nc2ccc(F)cc2)o1 | inconclusive: 18.3 µM [inhibitor, partial curve]
21 | Cc1ccc2nc(-c3ccc(C)o3)c(Nc3ccccc3)n2c1 | inconclusive: 18.3 µM [inhibitor, partial curve]
